PubChem BioAssay AID504793 – Drosophila RNAi Screening Center, 2011
In all, the deposit lists about 23,000 reagents; shown is an unselected part of those with a known target gene and a result. In the full data, 62 (0.27%) were called active. 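Calls come from follow-up tests whose scores are not deposited, so confirmed genes may have low counts here; counts are not normalised per plate.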 Raw values vary from plate to plate and are shown uncorrected. Reagents against one gene are numbered here.

Aim: 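Knock-downs allowing continued mitosis even though DNA is damaged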 (primary screen)
Cell system: Drosophila S2R+ cells
Knock-down reagent: long dsRNA against Drosophila genes, about 0.25 µg dsRNA per well
Duration: 4 days of dsRNA, then 4 hours of drug before read-out
Challenge: doxorubicin 0.5 µM for 4 hours to cause double-strand breaks, in cells also given a low, harmless dose of dsRNA against nbs to sensitise the assay
Measurement: 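Per-well count of mitotic cells stained for phospho-histone H3 after doxorubicin exposure, used as mitotic index; counts are raw and not normalised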
Scale: mitotic cells: higher = more cells in mitosis, weaker G2 arrest
Active means: 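Genes are called active only when high mitotic counts were reproduced with independent dsRNAs and mitosis was checked for delay without damage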
Meaning of the calls: active = confirmed in follow-up tests; inactive = not confirmed

predicted target | reagent no. | mitotic cells, replicate 1 | call
CG5214 | 1 | 5 | inactive
CG5214 | 2 | 19 | inactive
CG5214 | 3 | 2 | inactive
grass (Gram-positive Specific Serine protease) | 1 | 12 | inactive
Sems (Seminase) | 1 | 5 | inactive
Sems (Seminase) | 2 | 8 | inactive
Mccc2 (Methylcrotonoyl-CoA carboxylase 2) | 1 | 3 | inactive
CG14562 | 1 | 6 | inactive
Sec31 (Secretory 31) | 1 | 4 | inactive
Sec31 (Secretory 31) | 2 | 12 | inactive
CG31156 | 1 | 7 | inactive
CG31156 | 2 | 12 | inactive
bon (bonus) | 1 | 5 | inactive
CG1137 | 1 | 4 | inactive
CG1137 | 2 | 2 | inactive
GILT3 (Gamma-interferon-inducible lysosomal thiol reductase 3) | 1 | 8 | inactive

5 consecutive entries already listed, for reference:
predicted target | reagent no. | mitotic cells, replicate 1 | call
CG14562 | 1 | 6 | inactive
Sec31 (Secretory 31) | 1 | 4 | inactive
Sec31 (Secretory 31) | 2 | 12 | inactive
CG31156 | 1 | 7 | inactive
CG31156 | 2 | 12 | inactive

More records follow.
predicted target | reagent no. | mitotic cells, replicate 1 | call
Myo28B1 (Myosin 28B1) | 1 | – | inactive
Myo28B1 (Myosin 28B1) | 2 | 4 | inactive
CG13144 | 1 | 4 | inactive
Yp3 (Yolk protein 3) | 1 | 9 | inactive
Yp3 (Yolk protein 3) | 2 | 10 | inactive
CG13193 | 1 | 3 | inactive
CG17343 | 1 | 4 | inactive
CG17343 | 2 | 5 | inactive
CG17343 | 3 | 7 | inactive
slmb (supernumerary limbs) | 1 | 3 | inactive
Sema5c (Semaphorin 5c) | 1 | 2 | inactive
Sema5c (Semaphorin 5c) | 2 | 8 | inactive
CG14316 | 1 | 9 | inactive
Prip | 1 | 10 | inactive
Prip | 2 | 7 | inactive
Mesh1 (Metazoan SpoT homolog-1) | 1 | 21 | inactive
CG15710 | 1 | 6 | inactive
HDAC4 (Histone deacetylase 4) | 1 | 13 | inactive
HDAC4 (Histone deacetylase 4) | 2 | 5 | inactive
FANCI (Fanconi anemia complementation group I) | 1 | 15 | active
CG5167 | 1 | 3 | inactive
CG16756 | 1 | 12 | inactive
CG5323 | 1 | 6 | inactive
CG2604 | 1 | 5 | inactive
CG2604 | 2 | 9 | inactive
CG14621 | 1 | 5 | inactive
CG14621 | 2 | 7 | inactive
CG12964 | 1 | 36 | inactive
CG12964 | 2 | 5 | inactive
